From patent US20240181000A1, “LGG-DERIVED PEPTIDES AND METHODS OF USE THEREOF” (Ohio State Innovation Foundation, priority 2021, published 2024)
At least one peptide structure holds a part that was inferred or is arguable (an end, a ring closure or a residue). No end group written: not given here.

How the values were obtained:
APEC O78 membrane [1] = experiment: Bacterial cytological profiling (confocal microscopy); assay type: cell-based, E. coli; conditions: 5×MIC, 3 h
Description: Bacterial cytological profiling (BCP): To identify the mode of action (MOA) of peptides (P1, P2, and P3), BCP approach was used as described previously. […] Following incubation, cultures were centrifuged, and bacteria was resuspended in 100 μL sterile water. FM4-64 (1 μg/mL; Invitrogen™ Molecular Probes™) and Syto-9 (5 μM; Invitrogen™ Molecular Probes™) stains were added to the bacterial cultures and incubated at 4° C. for 45 mins with shaking at 150 rpm. The stained bacteria were centrifuged, pelleted, and resuspended in 10 μL sterile water. The bacterial suspension (3 μL) was transferred onto glass slides containing thin layer of 1.2% agar and 20% LB media for confocal microscopy. Microscopy was performed using Leica TCS SP6 confocal scanning microscope (FM4-64-excitation 515 nm and emission 640 nm: Syto-9-excitation 485 nm and emission 498 nm) at Molecular and Cellular Imaging Center (MCIC), The Ohio State University (mcic.osu.edu/microscopy). Untreated bacterial culture was used as control.

APEC O78 membrane [2] = experiment: Transmission electron microscopy; assay type: cell-based, E. coli; conditions: 10×MIC, 3 h
Description: Transmission electron microscopy: To visualize the effect of peptides (P1, P2, and P3) on APEC membrane, transmission electron microscopy (TEM) was performed as described previously. The peptide treatment was performed as described above. […] After incubation, cells were fixed overnight at room temperature with 3% glutaraldehyde & 2% paraformaldehyde), washed, and postfixed with 1% osmium tetroxide (OsO4). The cells were then dehydrated with graded ethanol series and embedding was performed using Embed 812 Kit (Electron Microscopy Sciences, PA). Ultrathin (70 nm) sections were prepared on formvar-carbon coated grids and stained with uranyl acetate and lead citrate. Microscopy was performed using Hitachi H-7500 microscope at MCIC. Untreated bacterial culture was used as control.

[3] = test system: commensal and probiotic bacteria; experiment: Effect against beneficial microbes; assay type: cell-based; conditions: at MICs
Description: Effect against beneficial microbes: Peptides (P1, P2, and P3) were tested against different commensal and probiotic bacteria to determine their specificity of activity as described previously. Peptides were added at their MICs to 100 μL of known concentration of bacterial cultures and cultures were incubated under required conditions. Following incubation, OD600 of cultures was measured to determine the effect of peptides on bacterial growth.

APEC O78 [4] = experiment: Efficacy of peptides in chickens (oral, twice a day); assay type: in vivo; conditions: for Reduction of APEC colonization in cecum: 7 dpi
Description: Peptides were administered through orally twice a day from day 1 to day 7 either at 50 mg/kg or 100 mg/kg dose. On day 2, chickens were infected orally with Rif^γ APEC O78 (1-2×10^9 CFU/chicken). At day 9, chickens were euthanized, necropsied and cecum and internal organs (lung, liver, heart, and kidney) were processed for quantification of APEC load. The body weight of chickens was measured at day 9.
Efficacy of peptides in chickens: Animal study was approved by The Ohio State University Institutional Animal Care and Use Committee (IACUC, protocol #2010 A00000149). Chickens were euthanized using CO2 following American Veterinary Medical Association (AVMA) guidelines. Standard animal husbandry practices were followed throughout the experiment. Feed and water were provided ad libitum. The efficacy of peptides (P1, P2, and P3) were assessed at 50 mg/kg and 100 mg/kg doses in two successive experiments using commercial broiler chickens (n=10/group) (Cobb & Ross; Case Farms Ohio Hatchery, Strasburg, OH). […] Briefly, peptides dissolved in water [5 mg (50 mg/kg) or 10 mg (100 mg/kg) in 100 μL] were administered orally twice a day from day 1 (one day before APEC infection) today 7 (5 days post-infection; dpi). On day 2, chickens were infected orally with rifampicin resistant (Rif) APEC O78(27) (1-2×10^9 CFU/chicken). At 7 dpi (day 9), chickens were euthanized, necropsied and cecum and internal organs (lung, liver, heart, and kidney) were assessed for APEC load by plating on MacConkey agar plates containing 50 μg/mL rifampicin. The body weight of chickens was measured at the day of necropsy (day 9). The positive (PC; infected but not treated) and negative (NC; non-infected and non-treated) control chickens were included in both experiments. The statistical significance (P<0.05) of treatment on reduction of APEC load and effect on body weight was calculated using one-way ANOVA followed by Tukey's post-hoc test. To test if APEC acquired resistance against peptides (P1, P2, and P3) after treatment in chickens, APEC colonies (n=25/peptide/experiment) were randomly selected from agar plates that were plated with cecum and different internal organs at the end of experiments. Bacteria were grown in LB media and MICs were determined as above against respective peptides.

APEC O78 [5] = experiment: Efficacy in wax moth larvae model; assay type: in vivo, Galleria mellonella; conditions: for APEC load in the larvae: 72 h post-infection, untreated 7.4±3.1 log CFU/larva; for Larval mortality: pretreated with 25.5 mM, 72 h, untreated 73.34%
Description: Efficacy and toxicity of peptides in wax moth (Galleria mellonella) larvae model: To measure the efficacy and toxicity of peptides (P1, P2, and P3) in vivo, wax moth larvae model was used as described previously. Wax moth larvae were obtained from Vanderhorst Wholesale, Inc. (Saint Marys, OH) and were kept at 37° C. overnight before use. Healthy larvae (creamy color with no blackening) were selected and kept in sterile petri dishes before inoculation. For toxicity evaluation, larvae (n=10/group) were injected with 25.5 mM of peptides (dissolved in sterile water containing DMSO) through last left pro-leg using PB600-1 repeating dispenser (Hamilton) attached to insulin syringe (ReliOn; 31 gauze, 8 mm needle length). The injected larvae were incubated for 72 h at 37° C., and mortality was recorded every 12 h.
For efficacy evaluation, larvae (n=15/group) were pretreated (as above) and infected with rifampicin resistant (Rif) APEC O78 (2.3×10^4 CFU/larva) through last right pro-leg within 30 mins of treatment. The larvae were incubated at 37° C. for 72 h and mortality was recorded as above. After 72 h post-infection, all dead and live larvae were surface sterilized (70% ethanol followed by sterile water) and macerated in PBS. The macerated larval suspensions were ten-fold serially diluted and plated on MacConkey agar plates containing 50 μg/mL rifampicin. Non-injected larvae and larvae injected with vehicle (sterile water containing DMSO) were included as controls in both the experiments. Two independent experiments were conducted. The statistical significance (P<0.05) of treatments on survival of larvae and APEC load inside larvae was calculated using log-rank test and one-way ANOVA followed by Tukey's post-hoc test, respectively.

Row | Substance | APEC membrane in confocal microscopy (FM4-64/SYTO-9) (APEC O78 membrane [1]) | APEC membrane in TEM (APEC O78 membrane [2]) | Growth of Gram-negative beneficial bacteria, particularly E. coli [3] | Growth of Gram-positive beneficial bacteria [3] | Reduction of APEC colonization in cecum (APEC O78 [4]; 50 mg/kg dose) | Number of chickens positive for APEC in internal organs (APEC O78 [4]; 100 mg/kg dose) | Reduction of APEC colonization in cecum (APEC O78 [4]; 100 mg/kg dose) | APEC load in the larvae (APEC O78 [5]) | Larval mortality (APEC O78 [5])
1 | VHTAPK [Peptide P3, VHTAPK] | no or minimally visible APEC membrane | membrane either sloughed (or shed), ruptured, or flaccid | inhibited | no effect | 1.1 logs | reduced the number of chickens positive for APEC | 0.6 logs | except for one larva | 6.67%
2 | NPSRQERR [Peptide P1] | no or minimally visible APEC membrane | membrane either sloughed (or shed), ruptured, or flaccid | inhibited | no effect | 0.5 logs | – | 1.3 logs | no APEC was isolated | 6.67%
